# From the supplement of paper PMC8728848
# This is one part of the list.
# Tests used:
# Assay in all cases: glycan array binding signal (z-score within array); higher = stronger binding
# Conditions in all cases: glycan notation: IUPAC condensed, linker removed
# [1] = molecular target: Gal(b1-4)Glc
# How it was run: (§1)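 Arrays were curated from the Consortium for Functional Glycomics database, 3228 in total, and kept only where the protein sequence was available. Binding is expressed as a within-array Z-score. This score was averaged across arrays of the same protein sequence at different concentrations or buffers and across linkers, and negative values can be read as non-binding.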
# [2] = molecular target: Gal(b1-4)Glc6S
# How it was run: as §1
# [3] = molecular target: Gal(b1-4)GlcNAc
# How it was run: as §1
# [4] = molecular target: Gal(b1-4)GlcNAc(a1-6)Gal(b1-4)GlcNAc
# How it was run: as §1
# [5] = molecular target: Gal(b1-4)GlcNAc(b1-2)Man
# How it was run: as §1
# [6] = molecular target: Gal(b1-4)GlcNAc(b1-2)Man(a1-3)Man(b1-4)GlcNAc(b1-4)GlcNAc
# How it was run: as §1
# [7] = molecular target: Gal(b1-4)GlcNAc(b1-2)Man(a1-3)[Gal(b1-4)GlcNAc(b1-2)Man(a1-6)]Man(b1-4)GlcNAc(b1-4)GlcNAc
# How it was run: as §1
# [8] = molecular target: Gal(b1-4)GlcNAc(b1-2)Man(a1-3)[Gal(b1-4)GlcNAc(b1-2)Man(a1-6)]Man(b1-4)GlcNAc(b1-4)[Fuc(a1-6)]GlcNAc
# How it was run: as §1
# [9] = molecular target: Gal(b1-4)GlcNAc(b1-2)Man(a1-3)[Gal(b1-4)GlcNAc(b1-2)Man(a1-6)][Gal(b1-4)GlcNAc(b1-4)]Man(b1-4)GlcNAc(b1-4)[Fuc(a1-6)]GlcNAc
# How it was run: as §1
# [10] = molecular target: Gal(b1-4)GlcNAc(b1-2)Man(a1-3)[Gal(b1-4)GlcNAc(b1-2)Man(a1-6)][GlcNAc(b1-4)]Man(b1-4)GlcNAc(b1-4)[Fuc(a1-6)]GlcNAc
# How it was run: as §1
# [11] = molecular target: Gal(b1-4)GlcNAc(b1-2)Man(a1-3)[GlcNAc(b1-2)Man(a1-6)]Man(b1-4)GlcNAc(b1-4)GlcNAc
# How it was run: as §1
# [12] = molecular target: Gal(b1-4)GlcNAc(b1-2)Man(a1-3)[GlcNAc(b1-4)][Gal(b1-4)GlcNAc(b1-2)Man(a1-6)]Man(b1-4)GlcNAc(b1-4)GlcNAc
# How it was run: as §1
# [13] = molecular target: Gal(b1-4)GlcNAc(b1-2)Man(a1-3)[Man(a1-6)]Man(b1-4)GlcNAc(b1-4)GlcNAc
# How it was run: as §1
# [14] = molecular target: Gal(b1-4)GlcNAc(b1-2)Man(a1-6)Man(b1-4)GlcNAc(b1-4)GlcNAc
# How it was run: as §1
# [15] = molecular target: Gal(b1-4)GlcNAc(b1-2)Man(a1-6)[GlcNAc(b1-2)Man(a1-3)]Man(b1-4)GlcNAc(b1-4)GlcNAc
# How it was run: as §1
# [16] = molecular target: Gal(b1-4)GlcNAc(b1-2)Man(a1-6)[Man(a1-3)]Man(b1-4)GlcNAc(b1-4)GlcNAc
# How it was run: as §1
# [17] = molecular target: Gal(b1-4)GlcNAc(b1-2)[Gal(b1-4)GlcNAc(b1-4)]Man(a1-3)[Gal(b1-4)GlcNAc(b1-2)Man(a1-6)]Man(b1-4)GlcNAc(b1-4)GlcNAc
# How it was run: as §1
# [18] = molecular target: Gal(b1-4)GlcNAc(b1-2)[Gal(b1-4)GlcNAc(b1-4)]Man(a1-3)[Gal(b1-4)GlcNAc(b1-2)[Gal(b1-4)GlcNAc(b1-6)]Man(a1-6)]Man(b1-4)GlcNAc(b1-4)GlcNAc
# How it was run: as §1
# [19] = molecular target: Gal(b1-4)GlcNAc(b1-2)[Gal(b1-4)GlcNAc(b1-4)]Man(a1-3)[GlcNAc(b1-4)][Gal(b1-4)GlcNAc(b1-2)Man(a1-6)]Man(b1-4)GlcNAc(b1-4)GlcNAc
# How it was run: as §1
# [20] = molecular target: Gal(b1-4)GlcNAc(b1-2)[Gal(b1-4)GlcNAc(b1-4)]Man(a1-3)[GlcNAc(b1-4)][Gal(b1-4)GlcNAc(b1-2)[Gal(b1-4)GlcNAc(b1-6)]Man(a1-6)]Man(b1-4)GlcNAc(b1-4)GlcNAc
# How it was run: as §1
# [21] = molecular target: Gal(b1-4)GlcNAc(b1-2)[Gal(b1-4)GlcNAc(b1-6)]Man(a1-6)[Gal(b1-4)GlcNAc(b1-2)Man(a1-3)]Man(b1-4)GlcNAc(b1-4)GlcNAc
# How it was run: as §1
# [22] = molecular target: Gal(b1-4)GlcNAc(b1-2)[Gal(b1-4)GlcNAc(b1-6)]Man(a1-6)[Gal(b1-4)GlcNAc(b1-2)Man(a1-3)]Man(b1-4)GlcNAc(b1-4)[Fuc(a1-6)]GlcNAc
# How it was run: as §1
# [23] = molecular target: Gal(b1-4)GlcNAc(b1-2)[Gal(b1-4)GlcNAc(b1-6)]Man(a1-6)[GlcNAc(b1-4)][Gal(b1-4)GlcNAc(b1-2)Man(a1-3)]Man(b1-4)GlcNAc(b1-4)GlcNAc
# How it was run: as §1
# [24] = molecular target: Gal(b1-4)GlcNAc(b1-2)[Gal(b1-4)GlcNAc(b1-6)]Man(a1-6)[GlcNAc(b1-4)][Gal(b1-4)GlcNAc(b1-2)[Gal(b1-4)GlcNAc(b1-4)]Man(a1-3)]Man(b1-4)GlcNAc(b1-4)[Fuc(a1-6)]GlcNAc
# How it was run: as §1
# [25] = molecular target: Gal(b1-4)GlcNAc(b1-3)Gal(b1-3)GalNAc
# How it was run: as §1
# [26] = molecular target: Gal(b1-4)GlcNAc(b1-3)Gal(b1-3)GlcNAc
# How it was run: as §1
# [27] = molecular target: Gal(b1-4)GlcNAc(b1-3)Gal(b1-4)Glc
# How it was run: as §1
# [28] = molecular target: Gal(b1-4)GlcNAc(b1-3)Gal(b1-4)GlcNAc
# How it was run: as §1
# [29] = molecular target: Gal(b1-4)GlcNAc(b1-3)Gal(b1-4)GlcNAc(b1-2)Man(a1-3)[Gal(b1-4)GlcNAc(b1-3)Gal(b1-4)GlcNAc(b1-2)Man(a1-6)]Man(b1-4)GlcNAc(b1-4)GlcNAc
# How it was run: as §1
# [30] = molecular target: Gal(b1-4)GlcNAc(b1-3)Gal(b1-4)GlcNAc(b1-2)Man(a1-3)[Gal(b1-4)GlcNAc(b1-3)Gal(b1-4)GlcNAc(b1-2)Man(a1-6)]Man(b1-4)GlcNAc(b1-4)[Fuc(a1-6)]GlcNAc
# How it was run: as §1
binder,measurement,setting,value
"CD4 (Rattus norvegicus), P05540 (protein) MCRGFSFRHLLPLLLLQLSKLLVVTQGSTSITAYKSEGESAEFSFPLNLGEESLQGELRWKAEKAPSSQSWITFSLKNQKVSVQKSTSNPKFQLSETLPLTLQIPQVSLQFAGSGNLTLTLDRGILYQEVNLVVMKVTQPDSNTLTCEVMGPTSPKMRLILKQENQEARVSRQEKVIQVQAPEAGVWQCLLSEGEEVKMDSKIQVLSKGLNSGGGSGGGTGGGDLAPQMLRELQETNAALQDVRELLRQQVKEITFLKNTVMECDACGLDRNLPPLAPLGPHPETLVKVKDAEDQLGARVGYIELDLNSGKILESFRPEERFPMMSTFKVLLCGAVLSRIDAGQEQLGRRIHYSQNDLVEYSPVTEKHLTDGMTVRELCSAAITMSDNTAANLLLTTIGGPKELTAFLHNMGDHVTRLDRWEPELNEAIPNDERDTTMPVAMATTLRKLLTGELLTLASRQQLIDWMEADKVAGPLLRSALPAGWFIADKSGAGERGSRGIIAALGPDGKPSRIVVIYTTGSQATMDERNRQIAEIGASLIKHW",glycan array binding signal (z-score),[1],0.549
same,glycan array binding signal (z-score),[2],0.883
same,glycan array binding signal (z-score),[3],-0.956
same,glycan array binding signal (z-score),[4],-0.407
same,glycan array binding signal (z-score),[5],-0.294
same,glycan array binding signal (z-score),[6],-1
same,glycan array binding signal (z-score),[7],0.135
same,glycan array binding signal (z-score),[8],1.38
same,glycan array binding signal (z-score),[9],1.09
same,glycan array binding signal (z-score),[10],-0.791
same,glycan array binding signal (z-score),[11],-1.32
same,glycan array binding signal (z-score),[12],-0.472
same,glycan array binding signal (z-score),[13],1.82
same,glycan array binding signal (z-score),[14],0.125
same,glycan array binding signal (z-score),[15],-0.524
same,glycan array binding signal (z-score),[16],-1.67
same,glycan array binding signal (z-score),[17],-0.405
same,glycan array binding signal (z-score),[18],1.14
same,glycan array binding signal (z-score),[19],-1.1
same,glycan array binding signal (z-score),[20],-1.4
same,glycan array binding signal (z-score),[21],0.078
same,glycan array binding signal (z-score),[22],-0.942
same,glycan array binding signal (z-score),[23],-0.624
same,glycan array binding signal (z-score),[24],1.59
same,glycan array binding signal (z-score),[25],3.12
same,glycan array binding signal (z-score),[26],-1.02
same,glycan array binding signal (z-score),[27],0.472
same,glycan array binding signal (z-score),[28],-0.847
same,glycan array binding signal (z-score),[29],1.52
same,glycan array binding signal (z-score),[30],2.88

# Looked up one by one from the entries so far, two records:
binder,measurement,setting,value
"CD4 (Rattus norvegicus), P05540 (protein) MCRGFSFRHLLPLLLLQLSKLLVVTQGSTSITAYKSEGESAEFSFPLNLGEESLQGELRWKAEKAPSSQSWITFSLKNQKVSVQKSTSNPKFQLSETLPLTLQIPQVSLQFAGSGNLTLTLDRGILYQEVNLVVMKVTQPDSNTLTCEVMGPTSPKMRLILKQENQEARVSRQEKVIQVQAPEAGVWQCLLSEGEEVKMDSKIQVLSKGLNSGGGSGGGTGGGDLAPQMLRELQETNAALQDVRELLRQQVKEITFLKNTVMECDACGLDRNLPPLAPLGPHPETLVKVKDAEDQLGARVGYIELDLNSGKILESFRPEERFPMMSTFKVLLCGAVLSRIDAGQEQLGRRIHYSQNDLVEYSPVTEKHLTDGMTVRELCSAAITMSDNTAANLLLTTIGGPKELTAFLHNMGDHVTRLDRWEPELNEAIPNDERDTTMPVAMATTLRKLLTGELLTLASRQQLIDWMEADKVAGPLLRSALPAGWFIADKSGAGERGSRGIIAALGPDGKPSRIVVIYTTGSQATMDERNRQIAEIGASLIKHW",glycan array binding signal (z-score),[4],-0.407
same,glycan array binding signal (z-score),[30],2.88
